The values that follow come from paper PMC8394137.

Protein sequences, listed by entry. Tags and fused reporters are not part of them. Residues count along the entry.
UniProt O43736: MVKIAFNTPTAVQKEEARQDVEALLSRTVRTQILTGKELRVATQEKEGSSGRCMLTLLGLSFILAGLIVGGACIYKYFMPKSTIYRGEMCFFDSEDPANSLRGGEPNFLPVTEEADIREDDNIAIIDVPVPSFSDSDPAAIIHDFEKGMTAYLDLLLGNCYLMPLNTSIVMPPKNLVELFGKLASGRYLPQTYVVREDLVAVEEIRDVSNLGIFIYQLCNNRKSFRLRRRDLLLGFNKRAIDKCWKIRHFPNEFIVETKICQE
UniProt P20930: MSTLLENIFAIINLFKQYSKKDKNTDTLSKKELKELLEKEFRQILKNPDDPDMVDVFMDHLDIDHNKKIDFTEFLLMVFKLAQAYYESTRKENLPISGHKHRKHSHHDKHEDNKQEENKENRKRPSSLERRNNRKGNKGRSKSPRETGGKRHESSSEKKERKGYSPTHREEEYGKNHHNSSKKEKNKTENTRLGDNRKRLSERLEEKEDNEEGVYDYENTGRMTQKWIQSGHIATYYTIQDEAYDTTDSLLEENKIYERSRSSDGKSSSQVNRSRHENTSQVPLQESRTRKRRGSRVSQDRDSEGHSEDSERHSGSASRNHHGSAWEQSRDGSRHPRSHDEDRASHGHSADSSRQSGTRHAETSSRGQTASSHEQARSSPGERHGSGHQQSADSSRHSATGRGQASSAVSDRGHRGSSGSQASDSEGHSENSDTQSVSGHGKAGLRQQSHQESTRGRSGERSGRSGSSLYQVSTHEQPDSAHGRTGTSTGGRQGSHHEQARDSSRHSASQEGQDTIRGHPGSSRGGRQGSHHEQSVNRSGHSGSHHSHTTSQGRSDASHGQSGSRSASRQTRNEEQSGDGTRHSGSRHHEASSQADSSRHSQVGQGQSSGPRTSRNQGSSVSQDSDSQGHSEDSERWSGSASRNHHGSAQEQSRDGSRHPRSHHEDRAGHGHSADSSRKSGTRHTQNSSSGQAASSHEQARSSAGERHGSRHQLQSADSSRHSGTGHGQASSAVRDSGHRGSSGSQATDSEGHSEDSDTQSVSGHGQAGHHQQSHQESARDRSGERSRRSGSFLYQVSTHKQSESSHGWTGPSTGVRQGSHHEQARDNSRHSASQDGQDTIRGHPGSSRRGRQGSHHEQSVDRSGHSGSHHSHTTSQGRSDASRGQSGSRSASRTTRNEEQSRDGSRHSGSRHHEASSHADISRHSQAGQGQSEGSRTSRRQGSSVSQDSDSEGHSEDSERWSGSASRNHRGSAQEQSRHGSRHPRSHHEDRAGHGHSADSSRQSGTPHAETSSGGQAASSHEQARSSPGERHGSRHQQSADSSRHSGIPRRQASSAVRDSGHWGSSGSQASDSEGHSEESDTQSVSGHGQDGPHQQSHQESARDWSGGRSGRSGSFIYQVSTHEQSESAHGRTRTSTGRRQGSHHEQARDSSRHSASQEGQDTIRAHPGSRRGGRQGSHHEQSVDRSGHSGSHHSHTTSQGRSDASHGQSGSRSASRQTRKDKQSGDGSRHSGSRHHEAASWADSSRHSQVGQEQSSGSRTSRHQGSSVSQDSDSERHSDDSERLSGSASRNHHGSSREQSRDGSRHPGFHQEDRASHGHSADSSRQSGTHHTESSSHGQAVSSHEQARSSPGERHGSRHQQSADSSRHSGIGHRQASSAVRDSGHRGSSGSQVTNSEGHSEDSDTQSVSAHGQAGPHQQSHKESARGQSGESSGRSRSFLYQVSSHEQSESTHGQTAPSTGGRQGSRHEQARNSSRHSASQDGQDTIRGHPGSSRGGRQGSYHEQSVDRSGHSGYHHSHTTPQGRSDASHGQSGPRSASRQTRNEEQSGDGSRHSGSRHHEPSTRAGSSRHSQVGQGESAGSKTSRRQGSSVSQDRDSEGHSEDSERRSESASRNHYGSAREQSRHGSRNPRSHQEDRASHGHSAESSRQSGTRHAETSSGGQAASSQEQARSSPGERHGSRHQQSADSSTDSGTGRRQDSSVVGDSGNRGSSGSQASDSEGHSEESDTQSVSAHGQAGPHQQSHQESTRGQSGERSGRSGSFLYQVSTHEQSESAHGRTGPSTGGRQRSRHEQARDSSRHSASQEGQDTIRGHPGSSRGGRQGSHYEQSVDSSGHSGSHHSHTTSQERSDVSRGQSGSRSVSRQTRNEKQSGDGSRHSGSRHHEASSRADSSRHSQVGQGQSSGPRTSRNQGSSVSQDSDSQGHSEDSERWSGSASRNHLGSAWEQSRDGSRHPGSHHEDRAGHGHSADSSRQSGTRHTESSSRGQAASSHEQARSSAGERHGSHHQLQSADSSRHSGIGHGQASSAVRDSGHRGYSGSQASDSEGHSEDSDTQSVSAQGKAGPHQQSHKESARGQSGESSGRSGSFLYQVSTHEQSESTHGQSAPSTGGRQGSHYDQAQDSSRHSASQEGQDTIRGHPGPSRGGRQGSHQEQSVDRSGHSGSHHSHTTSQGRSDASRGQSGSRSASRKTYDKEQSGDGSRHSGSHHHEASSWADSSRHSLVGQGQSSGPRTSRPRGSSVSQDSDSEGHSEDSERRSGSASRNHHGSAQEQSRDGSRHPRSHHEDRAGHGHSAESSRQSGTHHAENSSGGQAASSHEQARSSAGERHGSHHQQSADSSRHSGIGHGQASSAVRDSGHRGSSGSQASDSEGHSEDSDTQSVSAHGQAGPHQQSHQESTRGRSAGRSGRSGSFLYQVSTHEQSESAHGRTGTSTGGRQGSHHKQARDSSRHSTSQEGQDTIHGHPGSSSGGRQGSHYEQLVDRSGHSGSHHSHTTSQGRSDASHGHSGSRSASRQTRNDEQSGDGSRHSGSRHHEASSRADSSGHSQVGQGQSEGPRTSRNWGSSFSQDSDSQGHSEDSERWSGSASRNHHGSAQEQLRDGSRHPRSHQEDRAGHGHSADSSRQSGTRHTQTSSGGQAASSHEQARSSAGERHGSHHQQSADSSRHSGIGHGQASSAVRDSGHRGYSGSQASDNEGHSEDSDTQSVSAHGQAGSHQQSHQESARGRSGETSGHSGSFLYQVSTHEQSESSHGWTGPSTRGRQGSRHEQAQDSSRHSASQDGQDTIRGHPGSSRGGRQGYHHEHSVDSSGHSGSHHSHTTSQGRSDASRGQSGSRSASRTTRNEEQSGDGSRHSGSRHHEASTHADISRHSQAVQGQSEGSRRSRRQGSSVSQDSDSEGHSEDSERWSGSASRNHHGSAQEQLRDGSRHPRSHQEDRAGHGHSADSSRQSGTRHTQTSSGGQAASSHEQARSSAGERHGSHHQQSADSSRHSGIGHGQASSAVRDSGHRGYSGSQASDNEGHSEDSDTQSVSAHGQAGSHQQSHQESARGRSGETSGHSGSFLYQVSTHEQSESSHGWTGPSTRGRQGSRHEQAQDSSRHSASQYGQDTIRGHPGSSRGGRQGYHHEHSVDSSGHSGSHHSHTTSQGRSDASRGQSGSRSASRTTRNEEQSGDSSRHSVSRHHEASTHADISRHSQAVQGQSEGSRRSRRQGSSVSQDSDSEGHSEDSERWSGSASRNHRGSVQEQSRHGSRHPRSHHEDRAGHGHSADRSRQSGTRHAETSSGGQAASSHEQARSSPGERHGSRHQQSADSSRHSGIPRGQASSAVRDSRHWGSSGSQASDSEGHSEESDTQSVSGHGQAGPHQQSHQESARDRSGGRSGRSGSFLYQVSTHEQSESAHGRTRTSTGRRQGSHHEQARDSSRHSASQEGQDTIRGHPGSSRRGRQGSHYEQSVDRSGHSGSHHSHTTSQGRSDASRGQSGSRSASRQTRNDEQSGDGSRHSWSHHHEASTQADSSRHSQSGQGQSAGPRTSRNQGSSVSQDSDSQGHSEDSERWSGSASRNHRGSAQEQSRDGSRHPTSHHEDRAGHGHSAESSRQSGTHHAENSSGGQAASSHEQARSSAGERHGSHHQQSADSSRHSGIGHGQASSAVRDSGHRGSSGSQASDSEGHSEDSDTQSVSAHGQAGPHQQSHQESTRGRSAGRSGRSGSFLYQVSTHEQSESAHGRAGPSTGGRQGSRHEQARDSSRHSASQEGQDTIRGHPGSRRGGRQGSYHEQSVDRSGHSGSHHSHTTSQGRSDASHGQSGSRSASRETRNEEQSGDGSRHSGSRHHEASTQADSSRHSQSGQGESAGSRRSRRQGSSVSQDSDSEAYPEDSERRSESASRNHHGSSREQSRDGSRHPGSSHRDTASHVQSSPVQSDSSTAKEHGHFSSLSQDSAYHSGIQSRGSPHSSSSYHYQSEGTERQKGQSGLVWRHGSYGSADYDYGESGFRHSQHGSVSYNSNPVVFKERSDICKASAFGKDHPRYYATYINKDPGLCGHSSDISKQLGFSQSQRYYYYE
UniProt P14625, residues 22-803: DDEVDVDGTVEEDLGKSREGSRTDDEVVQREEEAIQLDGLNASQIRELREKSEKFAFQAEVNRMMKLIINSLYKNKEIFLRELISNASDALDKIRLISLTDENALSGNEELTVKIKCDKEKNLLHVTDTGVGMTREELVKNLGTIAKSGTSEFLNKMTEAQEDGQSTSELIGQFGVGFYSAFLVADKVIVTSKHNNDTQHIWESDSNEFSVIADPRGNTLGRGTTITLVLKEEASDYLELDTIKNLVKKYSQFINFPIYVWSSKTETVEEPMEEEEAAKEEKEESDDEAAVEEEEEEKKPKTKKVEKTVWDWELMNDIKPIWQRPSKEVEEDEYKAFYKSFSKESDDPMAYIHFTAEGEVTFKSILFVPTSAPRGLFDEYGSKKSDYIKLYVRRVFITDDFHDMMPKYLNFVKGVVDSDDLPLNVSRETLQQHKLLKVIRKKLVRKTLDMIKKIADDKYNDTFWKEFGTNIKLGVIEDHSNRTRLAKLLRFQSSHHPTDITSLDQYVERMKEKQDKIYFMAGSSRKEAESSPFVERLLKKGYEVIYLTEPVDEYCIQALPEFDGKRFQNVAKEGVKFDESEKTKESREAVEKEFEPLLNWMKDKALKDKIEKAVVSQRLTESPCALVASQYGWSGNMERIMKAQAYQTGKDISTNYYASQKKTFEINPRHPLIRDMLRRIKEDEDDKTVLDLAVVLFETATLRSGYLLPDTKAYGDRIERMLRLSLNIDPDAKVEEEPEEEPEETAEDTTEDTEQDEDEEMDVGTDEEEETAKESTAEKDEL
UniProt P06748: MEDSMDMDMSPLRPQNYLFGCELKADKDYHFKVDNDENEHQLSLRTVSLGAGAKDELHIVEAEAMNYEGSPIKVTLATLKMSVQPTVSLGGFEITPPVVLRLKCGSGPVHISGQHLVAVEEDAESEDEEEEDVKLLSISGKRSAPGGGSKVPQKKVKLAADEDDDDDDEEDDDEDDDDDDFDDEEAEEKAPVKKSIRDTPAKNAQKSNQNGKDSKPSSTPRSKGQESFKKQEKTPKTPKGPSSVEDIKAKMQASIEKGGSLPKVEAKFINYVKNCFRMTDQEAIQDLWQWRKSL
UniProt P05121, residues 24-402: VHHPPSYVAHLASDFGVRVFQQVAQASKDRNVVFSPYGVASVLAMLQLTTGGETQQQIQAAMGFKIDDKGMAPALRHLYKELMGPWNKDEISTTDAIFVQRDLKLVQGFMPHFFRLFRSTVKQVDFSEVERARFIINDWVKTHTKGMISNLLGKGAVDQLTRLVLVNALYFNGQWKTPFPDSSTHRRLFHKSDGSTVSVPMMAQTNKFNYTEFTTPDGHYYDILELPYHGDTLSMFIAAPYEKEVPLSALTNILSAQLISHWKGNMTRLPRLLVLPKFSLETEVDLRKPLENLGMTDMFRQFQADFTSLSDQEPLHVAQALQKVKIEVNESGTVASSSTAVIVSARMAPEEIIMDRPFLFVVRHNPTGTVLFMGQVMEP
UniProt P09012: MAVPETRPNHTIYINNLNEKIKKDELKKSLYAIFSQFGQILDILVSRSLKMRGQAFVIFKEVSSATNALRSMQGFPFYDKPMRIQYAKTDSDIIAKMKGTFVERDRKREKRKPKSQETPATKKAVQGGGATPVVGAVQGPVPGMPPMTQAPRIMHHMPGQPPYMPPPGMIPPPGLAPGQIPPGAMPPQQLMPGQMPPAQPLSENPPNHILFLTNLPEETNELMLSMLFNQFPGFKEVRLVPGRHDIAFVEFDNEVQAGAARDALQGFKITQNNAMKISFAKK
UniProt P19474: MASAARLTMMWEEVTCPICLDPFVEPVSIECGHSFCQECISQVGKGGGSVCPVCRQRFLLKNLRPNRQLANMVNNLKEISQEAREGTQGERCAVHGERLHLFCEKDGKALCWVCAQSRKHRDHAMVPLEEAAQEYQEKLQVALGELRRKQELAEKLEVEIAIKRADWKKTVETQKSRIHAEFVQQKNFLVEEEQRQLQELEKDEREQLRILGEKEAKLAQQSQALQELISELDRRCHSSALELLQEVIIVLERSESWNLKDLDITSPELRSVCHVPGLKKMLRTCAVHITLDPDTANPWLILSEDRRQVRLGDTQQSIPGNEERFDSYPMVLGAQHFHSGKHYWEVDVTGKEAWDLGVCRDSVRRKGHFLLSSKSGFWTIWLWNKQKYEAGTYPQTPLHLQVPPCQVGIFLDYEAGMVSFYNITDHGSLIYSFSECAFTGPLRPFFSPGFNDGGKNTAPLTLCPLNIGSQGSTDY

B1: ADAR (protein, UniProt P55265 1-1226)
chain: MNPRQGYSLSGYYTHPFQGYEHRQLRYQQPGPGSSPSSFLLKQIEFLKGQLPEAPVIGKQTPSLPPSLPGLRPRFPVLLASSTRGRQVDIRGVPRGVHLRSQGLQRGFQHPSPRGRSLPQRGVDCLSSHFQELSIYQDQEQRILKFLEELGEGKATTAHDLSGKLGTPKKEINRVLYSLAKKGKLQKEAGTPPLWKIAVSTQAWNQHSGVVRPDGHSQGAPNSDPSLEPEDRNSTSVSEDLLEPFIAVSAQAWNQHSGVVRPDSHSQGSPNSDPGLEPEDSNSTSALEDPLEFLDMAEIKEKICDYLFNVSDSSALNLAKNIGLTKARDINAVLIDMERQGDVYRQGTTPPIWHLTDKKRERMQIKRNTNSVPETAPAAIPETKRNAEFLTCNIPTSNASNNMVTTEKVENGQEPVIKLENRQEARPEPARLKPPVHYNGPSKAGYVDFENGQWATDDIPDDLNSIRAAPGEFRAIMEMPSFYSHGLPRCSPYKKLTECQLKNPISGLLEYAQFASQTCEFNMIEQSGPPHEPRFKFQVVINGREFPPAEAGSKKVAKQDAAMKAMTILLEEAKAKDSGKSEESSHYSTEKESEKTAESQTPTPSATSFFSGKSPVTTLLECMHKLGNSCEFRLLSKEGPAHEPKFQYCVAVGAQTFPSVSAPSKKVAKQMAAEEAMKALHGEATNSMASDNQPEGMISESLDNLESMMPNKVRKIGELVRYLNTNPVGGLLEYARSHGFAAEFKLVDQSGPPHEPKFVYQAKVGGRWFPAVCAHSKKQGKQEAADAALRVLIGENEKAERMGFTEVTPVTGASLRRTMLLLSRSPEAQPKTLPLTGSTFHDQIAMLSHRCFNTLTNSFQPSLLGRKILAAIIMKKDSEDMGVVVSLGTGNRCVKGDSLSLKGETVNDCHAEIISRRGFIRFLYSELMKYNSQTAKDSIFEPAKGGEKLQIKKTVSFHLYISTAPCGDGALFDKSCSDRAMESTESRHYPVFENPKQGKLRTKVENGEGTIPVESSDIVPTWDGIRLGERLRTMSCSDKILRWNVLGLQGALLTHFLQPIYLKSVTLGYLFSQGHLTRAICCRVTRDGSAFEDGLRHPFIVNHPKVGRVSIYDSKRQSGKTKETSVNWCLADGYDLEILDGTRGTVDGPRNELSRVSKKNIFLLFKKLCSFRYRRDLLRLSYGEAKKAARDYETAKNYFKKGLKDMGYGNWISKPQEEKNFYLCPV
B2: ATXN2L (protein, UniProt Q8WWM7 1-1075)
chain: MLKPQPLQQPSQPQQPPPTQQAVARRPPGGTSPPNGGLPGPLATSAAPPGPPAAASPCLGPVAAAGSGLRRGAEGILAPQPPPPQQHQERPGAAAIGSARGQSTGKGPPQSPVFEGVYNNSRMLHFLTAVVGSTCDVKVKNGTTYEGIFKTLSSKFELAVDAVHRKASEPAGGPRREDIVDTMVFKPSDVMLVHFRNVDFNYATKDKFTDSAIAMNSKVNGEHKEKVLQRWEGGDSNSDDYDLESDMSNGWDPNEMFKFNEENYGVKTTYDSSLSSYTVPLEKDNSEEFRQRELRAAQLAREIESSPQYRLRIAMENDDGRTEEEKHSAVQRQGSGRESPSLASREGKYIPLPQRVREGPRGGVRCSSSRGGRPGLSSLPPRGPHHLDNSSPGPGSEARGINGGPSRMSPKAQRPLRGAKTLSSPSNRPSGETSVPPPPAVGRMYPPRSPKSAAPAPISASCPEPPIGSAVPTSSASIPVTSSVSDPGVGSISPASPKISLAPTDVKELSTKEPGRTLEPQELARIAGKVPGLQNEQKRFQLEELRKFGAQFKLQPSSSPENSLDPFPPRILKEEPKGKEKEVDGLLTSEPMGSPVSSKTESVSDKEDKPPLAPSGGTEGPEQPPPPCPSQTGSPPVGLIKGEDKDEGPVAEQVKKSTLNPNAKEFNPTKPLLSVNKSTSTPTSPGPRTHSTPSIPVLTAGQSGLYSPQYISYIPQIHMGPAVQAPQMYPYPVSNSVPGQQGKYRGAKGSLPPQRSDQHQPASAPPMMQAAAAAGPPLVAATPYSSYIPYNPQQFPGQPAMMQPMAHYPSQPVFAPMLQSNPRMLTSGSHPQAIVSSSTPQYPSAEQPTPQALYATVHQSYPHHATQLHAHQPQPATTPTGSQPQSQHAAPSPVQHQAGQAPHLGSGQPQQNLYHPGALTGTPPSLPPGPSAQSPQSSFPQPAAVYAIHHQQLPHGFTNMAHVTQAHVQTGITAAPPPHPGAPHPPQVMLLHPPQSHGGPPQGAVPQSGVPALSASTPSPYPYIGHPQGEQPGQAPGFPGGADDRIREFSLAGGIWHGRAEGLQVGQDARVLGGE
B3: CISD2 (protein, UniProt Q8N5K1 1-135)
chain: MVLESVARIVKVQLPAYLKRLPVPESITGFARLTVSEWLRLLPFLGVLALLGYLAVRPFLPKKKQQKDSLINLKIQKENPKVVNEINIEDLCLTKAAYCRCWRSKTFPACDGSHNKHNELTGDNVGPLILKKKEV
B4: ERLIN2 (protein, UniProt O94905 1-339)
chain: MAQLGAVVAVASSFFCASLFSAVHKIEEGHIGVYYRGGALLTSTSGPGFHLMLPFITSYKSVQTTLQTDEVKNVPCGTSGGVMIYFDRIEVVNFLVPNAVYDIVKNYTADYDKALIFNKIHHELNQFCSVHTLQEVYIELFDQIDENLKLALQQDLTSMAPGLVIQAVRVTKPNIPEAIRRNYELMESEKTKLLIAAQKQKVVEKEAETERKKALIEAEKVAQVAEITYGQKVMEKETEKKISEIEDAAFLAREKAKADAECYTAMKIAEANKLKLTPEYLQLMKYKAIASNSKIYFGKDIPNMFMDSAGSVSKQFEGLADKLSFGLEDEPLETATKEN
B5: FAF2 (protein, UniProt Q96CS3 1-445)
chain: MAAPEERDLTQEQTEKLLQFQDLTGIESMDQCRHTLEQHNWNIEAAVQDRLNEQEGVPSVFNPPPSRPLQVNTADHRIYSYVVSRPQPRGLLGWGYYLIMLPFRFTYYTILDIFRFALRFIRPDPRSRVTDPVGDIVSFMHSFEEKYGRAHPVFYQGTYSQALNDAKRELRFLLVYLHGDDHQDSDEFCRNTLCAPEVISLINTRMLFWACSTNKPEGYRVSQALRENTYPFLAMIMLKDRRMTVVGRLEGLIQPDDLINQLTFIMDANQTYLVSERLEREERNQTQVLRQQQDEAYLASLRADQEKERKKREERERKRRKEEEVQQQKLAEERRRQNLQEEKERKLECLPPEPSPDDPESVKIIFKLPNDSRVERRFHFSQSLTVIHDFLFSLKESPEKFQIEANFPRRVLPCIPSEEWPNPPTLQEAGLSHTEVLFVQDLTDE
B6: ABCF2 (protein, UniProt Q9UG63 1-623)
chain: MPSDLAKKKAAKKKEAAKARQRPRKGHEENGDVVTEPQVAEKNEANGRETTEVDLLTKELEDFEMKKAAARAVTGVLASHPNSTDVHIINLSLTFHGQELLSDTKLELNSGRRYGLIGLNGIGKSMLLSAIGKREVPIPEHIDIYHLTREMPPSDKTPLHCVMEVDTERAMLEKEAERLAHEDAECEKLMELYERLEELDADKAEMRASRILHGLGFTPAMQRKKLKDFSGGWRMRVALARALFIRPFMLLLDEPTNHLDLDACVWLEEELKTFKRILVLVSHSQDFLNGVCTNIIHMHNKKLKYYTGNYDQYVKTRLELEENQMKRFHWEQDQIAHMKNYIARFGHGSAKLARQAQSKEKTLQKMMASGLTERVVSDKTLSFYFPPCGKIPPPVIMVQNVSFKYTKDGPCIYNNLEFGIDLDTRVALVGPNGAGKSTLLKLLTGELLPTDGMIRKHSHVKIGRYHQHLQEQLDLDLSPLEYMMKCYPEIKEKEEMRKIIGRYGLTGKQQVSPIRNLSDGQKCRVCLAWLAWQNPHMLFLDEPTNHLDIETIDALADAINEFEGGMMLVSHDFRLIQQVAQEIWVCEKQTITKWPGDILAYKEHLKSKLVDEEPQLTKRTHNV
B7: C1orf57 (protein, UniProt Q9BSD7 1-190)
chain: MARHVFLTGPPGVGKTTLIHKASEVLKSSGVPVDGFYTEEVRQGGRRIGFDVVTLSGTRGPLSRVGLEPPPGKRECRVGQYVVDLTSFEQLALPVLRNADCSSGPGQRVCVIDEIGKMELFSQLFIQAVRQTLSTPGTIILGTIPVPKGKPLALVEEIRNRKDVKVFNVTKENRNHLLPDIVTCVQSSRK
B8: DARS (protein, UniProt P14868 1-501)
chain: MPSASASRKSQEKPREIMDAAEDYAKERYGISSMIQSQEKPDRVLVRVRDLTIQKADEVVWVRARVHTSRAKGKQCFLVLRQQQFNVQALVAVGDHASKQMVKFAANINKESIVDVEGVVRKVNQKIGSCTQQDVELHVQKIYVISLAEPRLPLQLDDAVRPEAEGEEEGRATVNQDTRLDNRVIDLRTSTSQAVFRLQSGICHLFRETLINKGFVEIQTPKIISAASEGGANVFTVSYFKNNAYLAQSPQLYKQMCICADFEKVFSIGPVFRAEDSNTHRHLTEFVGLDIEMAFNYHYHEVMEEIADTMVQIFKGLQERFQTEIQTVNKQFPCEPFKFLEPTLRLEYCEALAMLREAGVEMGDEDDLSTPNEKLLGHLVKEKYDTDFYILDKYPLAVRPFYTMPDPRNPKQSNSYDMFMRGEEILSGAQRIHDPQLLTERALHHGIDLEKIKAYIDSFRFGAPPHAGGGIGLERVTMLFLGLHNVRQTSMFPRDPKRLTP

These are yes or no findings as the source states them, for the method shown. In cells and extracts the contact can be indirect. Here binding means that the protein was enriched with, or labelled near, the bait; the list need not be complete.

The test deals with HA-ITM2A (UniProt O43736). Description: affinity purification with mass spectrometry; HEK293 transfected with HA-ITM2A or empty pcDNA3.1, immunoprecipitated as for co-IP, trypsin digestion, mass spectrometry; proteins of the empty-vector control subtracted.
As to ALB (from UniProt P02768 25-609), the binding entry is recorded as “binds”. For the molecule BAG2 (from UniProt O95816 1-211), the binding result is listed as “binds”. As for CANX (from UniProt P27824 21-592), the entry is “binds”; as for CDKN2A (from UniProt P42771 1-156), “binds”; as for CSE1L (from UniProt P55060 1-971), “binds”. For the molecule DNAJA1 (from UniProt P31689 1-397), the binding entry was “binds”. The entry for DNAJA2 (from UniProt O60884 1-412) is “binds”; for EEF1G (from UniProt P26641 1-437) it is “binds”; for EIF4A1 (from UniProt P60842 1-406) it is “binds”. With FLG (from UniProt P20930 1-4061), the binding entry was “binds”. In the case of FLNA (from UniProt P21333 1-2647), the binding result is recorded as “binds”.

Take FLNC (from UniProt Q14315 1-2725): the binding entry is “binds”. Regarding GP96 (from UniProt P14625 22-803), the binding result is recorded as “binds”. With HSPA5 (from UniProt P11021 19-654), the binding entry was “binds”. As for NPM1 (from UniProt P06748 1-294), the entry is “binds”. The entry for PAI-1 (from UniProt P05121 24-402) is “binds”; for PSMD3 (from UniProt O43242 1-534) it is “binds”; for RALY (from UniProt Q9UKM9 1-306) it is “binds”.

Consider SLC3A2 (from UniProt P08195 1-529), for which the binding entry is “binds”. As for SNRPA (from UniProt P09012 1-282), the entry is “binds”; as for TRIM21 (from UniProt P19474 1-475), “binds”. In the case of YWHAZ (from UniProt P63104 1-245), the binding entry is “binds”. With B1, the binding entry is listed as “binds”.

Take B2: the binding result was “binds”. Turning to B3, the binding entry is “binds”. As for B4, the entry is “binds”; as for B5, “binds”; as for B6, “binds”. As for B7, the entry is “binds”; as for B8, “binds”.
